The assay concerns CD2F1 mice, L1210 leukemia ip, survival T/C. As to the kind of experiment: NCI In Vivo Anticancer Drug Screen. Data for tumor model L1210 Leukemia (intraperitoneal) in CD2F1 (CDF1) mice. The following applies: higher T/C = longer survival. The method, boiled down: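 Read-out first: treated-group measurement over vehicle-control measurement, expressed as a ratio. Animals bore a transplanted tumor line and were dosed with compound or vehicle.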

The mark [1] stands for this setting: T/C endpoint: mean survival time, dose: 200.0 mg/kg/injection, schedule: Q04DX003 (ip), vehicle: other.

Each structure is given as a SMILES string. The list is a part of this screen's results and no random one: it gathers tests that were run many times, whatever their T/C, doses with no T/C, and many T/C values between a quarter and a half above the control. Other doses and runs of a compound stand elsewhere. T/C is the treated group as % of the vehicle group. Some entries give survivors of the animals treated and no T/C: the source holds a T/C of zero for them, seemingly a mark for toxic or unscored doses. Some survivor counts are full or nearly so, which does not show that the dose was tolerated: survival well below the control is almost never listed, so the zero probably covers shortened survival too. Counts of survivors are from the toxicity check (mostly the fifth day) where no day follows; animals may have died later. Schedules are NCI's codes, read here as Q, the interval in days (D) or hours (H), X, the number of doses. Some entries were tested several times; their values stand side by side, smallest first. For survival time, the PubChem record calls one and a half times the control and up active, and a quarter to a half above the control has no call in these data; cut-offs in other NCI protocols can differ. Some T/C values carry the count of animals alive at the toxicity check (mostly the fifth day); without a count, all were alive then.

For `Cc1c2ccncc2c(C)c2c1[nH]c1ccccc12`, the T/C runs as follows: (T/C endpoint: mean survival time, dose: 3.13 mg/kg/injection, schedule: Q01DX009 (ip), vehicle: other) 130 % of control; (T/C endpoint: mean survival time, dose: 3.13 mg/kg/injection, schedule: Q01DX009 (ip), vehicle: saline) 140 % of control; (T/C endpoint: mean survival time, dose: 4.0 mg/kg/injection, schedule: Q01DX009 (ip), vehicle: saline with Tween-80) 130 % of control; (T/C endpoint: mean survival time, dose: 6.25 mg/kg/injection, schedule: Q01DX009 (ip), vehicle: saline) 147 % of control; (T/C endpoint: mean survival time, dose: 6.25 mg/kg/injection, schedule: Q04DX003 (ip), vehicle: saline) 135 % of control; (T/C endpoint: mean survival time, dose: 8.0 mg/kg/injection, schedule: Q01DX009 (ip), vehicle: saline with Tween-80) 126, 133, 135 % of control. Moreover, the T/C (T/C endpoint: mean survival time, dose: 10.0 mg/kg/injection, schedule: Q01DX009 (ip), vehicle: saline with Tween-80) is 147 % of control; the T/C (T/C endpoint: mean survival time, dose: 10.0 mg/kg/injection, schedule: Q04DX003 (ip), vehicle: saline with Tween-80) is 130 % of control; the T/C (T/C endpoint: mean survival time, dose: 12.5 mg/kg/injection, schedule: Q01DX009 (oral), vehicle: other) was 131 % of control; the T/C (T/C endpoint: mean survival time, dose: 12.5 mg/kg/injection, schedule: Q01DX009 (oral), vehicle: water) is 129 % of control; the T/C (T/C endpoint: mean survival time, dose: 12.5 mg/kg/injection, schedule: Q04DX003 (ip), vehicle: distilled water + Tween-80) was 138 % of control; the T/C (T/C endpoint: mean survival time, dose: 12.5 mg/kg/injection, schedule: Q04DX003 (ip), vehicle: other, evaluated on day 30) was 123, 125, 127 % of control. Moreover, the T/C is 129 % of control (T/C endpoint: mean survival time, dose: 12.5 mg/kg/injection, schedule: Q04DX003 (ip), vehicle: other, evaluated on day 60); 136 % of control (T/C endpoint: mean survival time, dose: 12.5 mg/kg/injection, schedule: Q04DX003 (ip), vehicle: saline); 138, 145, 148 % of control (T/C endpoint: mean survival time, dose: 16.0 mg/kg/injection, schedule: Q01DX009 (ip), vehicle: saline with Tween-80); 143 % of control (T/C endpoint: mean survival time, dose: 20.0 mg/kg/injection, schedule: Q04DX003 (ip), vehicle: saline with Tween-80); 139 % of control (T/C endpoint: mean survival time, dose: 25.0 mg/kg/injection, schedule: Q01DX009 (oral), vehicle: saline); 136 % of control (T/C endpoint: mean survival time, dose: 25.0 mg/kg/injection, schedule: Q04DX003 (ip), vehicle: distilled water + Tween-80). Also, the T/C runs as follows: (T/C endpoint: mean survival time, dose: 25.0 mg/kg/injection, schedule: Q04DX003 (ip), vehicle: other, evaluated on day 30) 126, 138, 141 % of control; (T/C endpoint: mean survival time, dose: 25.0 mg/kg/injection, schedule: Q04DX003 (ip), vehicle: other, evaluated on day 60) 189 % of control; (T/C endpoint: mean survival time, dose: 25.0 mg/kg/injection, schedule: Q04DX003 (ip), vehicle: saline with Tween-80) 138 % of control; (T/C endpoint: mean survival time, dose: 25.0 mg/kg/injection, schedule: Q04DX003 (oral), vehicle: other) 125 % of control; (T/C endpoint: mean survival time, dose: 25.0 mg/kg/injection, schedule: Q04DX003 (oral), vehicle: water) 131 % of control; (T/C endpoint: mean survival time, dose: 32.0 mg/kg/injection, schedule: Q01DX009 (ip), vehicle: saline with Tween-80) 130 and 143 % of control. Besides, the T/C is, setting by setting: (T/C endpoint: mean survival time, dose: 40.0 mg/kg/injection, schedule: Q01DX001 (ip), vehicle: water) 129 % of control; (T/C endpoint: mean survival time, dose: 40.0 mg/kg/injection, schedule: Q01DX009 (ip), vehicle: saline with Tween-80) 132 % of control; (T/C endpoint: mean survival time, dose: 50.0 mg/kg/injection, schedule: Q01DX009 (oral), vehicle: other) 125 % of control [9 of 10 alive]; (T/C endpoint: mean survival time, dose: 50.0 mg/kg/injection, schedule: Q04DX003 (ip), vehicle: distilled water + Tween-80) 148 % of control; (T/C endpoint: mean survival time, dose: 50.0 mg/kg/injection, schedule: Q04DX003 (ip), vehicle: other, evaluated on day 30) 149, 155, 161 % of control; (T/C endpoint: mean survival time, dose: 50.0 mg/kg/injection, schedule: Q04DX003 (ip), vehicle: other, evaluated on day 60) 180 % of control. Also, the T/C was 133 % of control [9 of 10 alive] (T/C endpoint: mean survival time, dose: 50.0 mg/kg/injection, schedule: Q04DX003 (ip), vehicle: water); 134 % of control (T/C endpoint: mean survival time, dose: 50.0 mg/kg/injection, schedule: Q04DX003 (oral), vehicle: other); 140 % of control (T/C endpoint: mean survival time, dose: 50.0 mg/kg/injection, schedule: Q04DX003 (oral), vehicle: saline); 129 % of control (T/C endpoint: mean survival time, dose: 100.0 mg/kg/injection, schedule: Q01DX009 (ip), vehicle: saline); 126 % of control under setting [1]; 147 % of control (T/C endpoint: mean survival time, dose: 200.0 mg/kg/injection, schedule: Q04DX003 (ip), vehicle: saline). The T/C (T/C endpoint: median survival time, dose: 40.0 mg/kg/injection, schedule: Q01DX001 (ip), vehicle: water) is 142 % of control. Moreover, the survivor count (T/C endpoint: mean survival time, dose: 100.0 mg/kg/injection, schedule: Q01DX009 (ip), vehicle: other) is given as 5 of 10; the survivor count (T/C endpoint: mean survival time, dose: 100.0 mg/kg/injection, schedule: Q01DX009 (ip), vehicle: water) was 7 of 10; the survivor count (T/C endpoint: mean survival time, dose: 100.0 mg/kg/injection, schedule: Q01DX009 (oral), vehicle: other) was 10 of 10; the survivor count (T/C endpoint: mean survival time, dose: 100.0 mg/kg/injection, schedule: Q01DX009 (oral), vehicle: water) is 10 of 10; the survivor count (T/C endpoint: mean survival time, dose: 100.0 mg/kg/injection, schedule: Q04DX003 (ip), vehicle: water) was 9 of 10; the survivor count (T/C endpoint: mean survival time, dose: 160.0 mg/kg/injection, schedule: Q01DX001 (ip), vehicle: water) is on record as 6 of 6. Also, the survivor count by setting is: (T/C endpoint: mean survival time, dose: 200.0 mg/kg/injection, schedule: Q01DX009 (oral), vehicle: other) 6 of 10; (T/C endpoint: mean survival time, dose: 200.0 mg/kg/injection, schedule: Q01DX009 (oral), vehicle: saline) 10 of 10; (T/C endpoint: mean survival time, dose: 200.0 mg/kg/injection, schedule: Q01DX009 (oral), vehicle: water) 8 of 10; under setting [1], 4 of 10; (T/C endpoint: mean survival time, dose: 200.0 mg/kg/injection, schedule: Q04DX003 (ip), vehicle: water) 5 of 10; (T/C endpoint: mean survival time, dose: 200.0 mg/kg/injection, schedule: Q04DX003 (oral), vehicle: other) 9 of 10. The survivor count reads like this: (T/C endpoint: mean survival time, dose: 200.0 mg/kg/injection, schedule: Q04DX003 (oral), vehicle: water) 4 of 10 and 10 of 10; (T/C endpoint: mean survival time, dose: 240.0 mg/kg/injection, schedule: Q01DX001 (ip), vehicle: water) 0 of 6; (T/C endpoint: mean survival time, dose: 400.0 mg/kg/injection, schedule: Q04DX003 (oral), vehicle: other) 7 of 10; (T/C endpoint: mean survival time, dose: 400.0 mg/kg/injection, schedule: Q04DX003 (oral), vehicle: saline) 10 of 10; (T/C endpoint: mean survival time, dose: 400.0 mg/kg/injection, schedule: Q04DX003 (oral), vehicle: water) 2 of 10 and 8 of 10; (T/C endpoint: median survival time, dose: 160.0 mg/kg/injection, schedule: Q01DX001 (ip), vehicle: water) 1 of 6.

For the compound `CSc1ccc(O)c(C)c1`, the survivor count is 3 of 6 (T/C endpoint: mean survival time, dose: 100.0 mg/kg/injection, schedule: Q01DX009 (ip), vehicle: saline with Tween-80) and 2 of 6 (T/C endpoint: mean survival time, dose: 400.0 mg/kg/injection, schedule: Q01DX009 (ip), vehicle: saline with Tween-80).

Regarding `CCN(CC)Cc1cc2[nH]c3c4ccc(Cl)cc4ncc3c2cc1OC`, the survivor count (T/C endpoint: median survival time, dose: 100.0 mg/kg/injection, schedule: Q01DX009 (ip), vehicle: saline with Tween-80) is recorded as 1 of 6.
